# In article PMC4231765:
# Results are given in words; binding and its absence hold for the method and conditions named. Some binding calls cover weakened binding; strength is not graded here. For part of these data: Tags and fused reporters may be left off the sequences shown.
# T1: HYL1, full-length, recombinant (MBP-HYL1 and GST-HYL1) (Arabidopsis thaliana), O04492
# T1 chain: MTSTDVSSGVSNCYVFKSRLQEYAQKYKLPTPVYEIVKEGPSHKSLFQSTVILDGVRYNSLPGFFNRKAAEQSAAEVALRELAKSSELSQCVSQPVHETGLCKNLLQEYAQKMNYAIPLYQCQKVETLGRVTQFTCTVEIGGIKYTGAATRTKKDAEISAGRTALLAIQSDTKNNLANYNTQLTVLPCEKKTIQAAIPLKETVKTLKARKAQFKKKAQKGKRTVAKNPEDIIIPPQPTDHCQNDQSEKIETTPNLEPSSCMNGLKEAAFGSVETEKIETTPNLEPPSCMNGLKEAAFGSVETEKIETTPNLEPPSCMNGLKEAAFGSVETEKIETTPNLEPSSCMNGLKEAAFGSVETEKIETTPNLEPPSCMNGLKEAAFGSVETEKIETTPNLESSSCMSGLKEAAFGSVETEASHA
# T2: HYL1, endogenous in wild-type plants (Arabidopsis thaliana (endogenous in wild-type plants)), O04492
# T2 chain: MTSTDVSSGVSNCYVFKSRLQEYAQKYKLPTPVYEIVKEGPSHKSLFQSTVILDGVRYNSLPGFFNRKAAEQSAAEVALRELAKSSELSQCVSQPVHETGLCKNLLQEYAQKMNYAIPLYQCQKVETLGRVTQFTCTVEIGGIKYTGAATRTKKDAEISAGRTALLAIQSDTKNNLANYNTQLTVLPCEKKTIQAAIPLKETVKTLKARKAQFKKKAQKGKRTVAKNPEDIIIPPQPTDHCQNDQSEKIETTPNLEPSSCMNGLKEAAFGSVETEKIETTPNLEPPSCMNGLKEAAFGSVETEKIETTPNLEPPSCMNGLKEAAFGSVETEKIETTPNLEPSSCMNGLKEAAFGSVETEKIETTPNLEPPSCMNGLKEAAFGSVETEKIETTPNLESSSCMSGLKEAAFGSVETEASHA
# Columns and labels:
# [1] = biological target: T1, HYL1, full-length, recombinant …; assay: pull-down; recombinant HYL1 or mutant from E. coli with DCL1 or SE tagged with 3×Flag purified from HEK293; western analysis; bait not stated; both purified; conditions: remark: other sources report otherwise
# [2] = biological target: T2, HYL1, endogenous in wild-type plants …; assay: western blot of plant extract under native condition; total protein extract of plants in buffer without addition of SDS and urea, detected with HYL1 antibody; conditions: remark: other sources report otherwise
# [3] = biological target: HYL1^I158E in hyl1-2;I158E transgenic plants (Arabidopsis thaliana) (UniProt O04492); assay: as above
binder,measurement,setting,value
"SE tagged with 3×Flag, recombinant, Q9ZVD0 1-720 (protein) MADVNLPPSDSVDNRLPEKSTSSSPPPPPPSSSLPQQEQEQDQQQLPLRRERDSRERRDERDIERPPPNRRERDRSPLPPPRRDYKRRPSLSPPPPYRDRRHSPPQRRSPPQKRYRRDDNGYDGRRGSPRGGYGPPDRRFGYDHGGGYDREMGGRPGYGDERPHGRFMGRYQDWEGGRGGYGDASNSGNPQRDGLMSYKQFIQELEDDILPSEAERRYQEYKSEYITTQKRAFFNTHKEEDWLKNKYHPTNLLSVIERRNDLAQKVAKDFLLDLQSGTLDLGPAVTALNKSGRTSEPNSEDEAAGVGKRKRHGMGGAKENELLSAAPKAPSFTSDPKRILTDVEQTQALVRKLDSEKKIEENVLQGSETEKSGREKLHSGSTGPVVIIRGLTSVKGLEGVELLDTLVTYLWRVHGLDYYGKVETNEAKGLRHVRAEGKVSDAKGDENESKFDSHWQERLKGQDPLEVMAAKEKIDAAATEALDPHVRKIRDEKYGWKYGCGAKGCTKLFHAAEFVYKHLKLKHTELVTELTTKVREELYFQNYMNDPNAPGGQPATQQSGPRDRPIRRKPSMENRLRDDRGGRRERDGRANGNDRNDRSEDQQRGDNDGGNPGEVGYDAFGGQGGVHVPPFLSDINPPPMLMPVPGAGPLGPFVPAPPEVAMQMFRDPSGPNPPFEGSGRGGPAPFLLSPAFRQDPRRLRSYQDLDAPEEEVTVIDYRSL",binding,[1],binds
"HYL1, endogenous in wild-type plants, O04492 1-419 (protein) MTSTDVSSGVSNCYVFKSRLQEYAQKYKLPTPVYEIVKEGPSHKSLFQSTVILDGVRYNSLPGFFNRKAAEQSAAEVALRELAKSSELSQCVSQPVHETGLCKNLLQEYAQKMNYAIPLYQCQKVETLGRVTQFTCTVEIGGIKYTGAATRTKKDAEISAGRTALLAIQSDTKNNLANYNTQLTVLPCEKKTIQAAIPLKETVKTLKARKAQFKKKAQKGKRTVAKNPEDIIIPPQPTDHCQNDQSEKIETTPNLEPSSCMNGLKEAAFGSVETEKIETTPNLEPPSCMNGLKEAAFGSVETEKIETTPNLEPPSCMNGLKEAAFGSVETEKIETTPNLEPSSCMNGLKEAAFGSVETEKIETTPNLEPPSCMNGLKEAAFGSVETEKIETTPNLESSSCMSGLKEAAFGSVETEASHA",binding,[2],binds
"HYL1^I158E in hyl1-2;I158E transgenic plants (protein, UniProt O04492 1-419) MTSTDVSSGVSNCYVFKSRLQEYAQKYKLPTPVYEIVKEGPSHKSLFQSTVILDGVRYNSLPGFFNRKAAEQSAAEVALRELAKSSELSQCVSQPVHETGLCKNLLQEYAQKMNYAIPLYQCQKVETLGRVTQFTCTVEIGGIKYTGAATRTKKDAEESAGRTALLAIQSDTKNNLANYNTQLTVLPCEKKTIQAAIPLKETVKTLKARKAQFKKKAQKGKRTVAKNPEDIIIPPQPTDHCQNDQSEKIETTPNLEPSSCMNGLKEAAFGSVETEKIETTPNLEPPSCMNGLKEAAFGSVETEKIETTPNLEPPSCMNGLKEAAFGSVETEKIETTPNLEPSSCMNGLKEAAFGSVETEKIETTPNLEPPSCMNGLKEAAFGSVETEKIETTPNLESSSCMSGLKEAAFGSVETEASHA",binding,[3],binds
